According to paper PMC6952817:
These are yes or no findings as the source states them, for the method shown. Binding seen in cells or lysates may run through a third protein. Some binding calls cover weakened binding; strength is not graded here.

Protein sequences, listed by entry. Tags and fused reporters are not part of them. Lines headed by an entry give the natural chain unless they say otherwise; changes in a name come on top.
UniProt P08069: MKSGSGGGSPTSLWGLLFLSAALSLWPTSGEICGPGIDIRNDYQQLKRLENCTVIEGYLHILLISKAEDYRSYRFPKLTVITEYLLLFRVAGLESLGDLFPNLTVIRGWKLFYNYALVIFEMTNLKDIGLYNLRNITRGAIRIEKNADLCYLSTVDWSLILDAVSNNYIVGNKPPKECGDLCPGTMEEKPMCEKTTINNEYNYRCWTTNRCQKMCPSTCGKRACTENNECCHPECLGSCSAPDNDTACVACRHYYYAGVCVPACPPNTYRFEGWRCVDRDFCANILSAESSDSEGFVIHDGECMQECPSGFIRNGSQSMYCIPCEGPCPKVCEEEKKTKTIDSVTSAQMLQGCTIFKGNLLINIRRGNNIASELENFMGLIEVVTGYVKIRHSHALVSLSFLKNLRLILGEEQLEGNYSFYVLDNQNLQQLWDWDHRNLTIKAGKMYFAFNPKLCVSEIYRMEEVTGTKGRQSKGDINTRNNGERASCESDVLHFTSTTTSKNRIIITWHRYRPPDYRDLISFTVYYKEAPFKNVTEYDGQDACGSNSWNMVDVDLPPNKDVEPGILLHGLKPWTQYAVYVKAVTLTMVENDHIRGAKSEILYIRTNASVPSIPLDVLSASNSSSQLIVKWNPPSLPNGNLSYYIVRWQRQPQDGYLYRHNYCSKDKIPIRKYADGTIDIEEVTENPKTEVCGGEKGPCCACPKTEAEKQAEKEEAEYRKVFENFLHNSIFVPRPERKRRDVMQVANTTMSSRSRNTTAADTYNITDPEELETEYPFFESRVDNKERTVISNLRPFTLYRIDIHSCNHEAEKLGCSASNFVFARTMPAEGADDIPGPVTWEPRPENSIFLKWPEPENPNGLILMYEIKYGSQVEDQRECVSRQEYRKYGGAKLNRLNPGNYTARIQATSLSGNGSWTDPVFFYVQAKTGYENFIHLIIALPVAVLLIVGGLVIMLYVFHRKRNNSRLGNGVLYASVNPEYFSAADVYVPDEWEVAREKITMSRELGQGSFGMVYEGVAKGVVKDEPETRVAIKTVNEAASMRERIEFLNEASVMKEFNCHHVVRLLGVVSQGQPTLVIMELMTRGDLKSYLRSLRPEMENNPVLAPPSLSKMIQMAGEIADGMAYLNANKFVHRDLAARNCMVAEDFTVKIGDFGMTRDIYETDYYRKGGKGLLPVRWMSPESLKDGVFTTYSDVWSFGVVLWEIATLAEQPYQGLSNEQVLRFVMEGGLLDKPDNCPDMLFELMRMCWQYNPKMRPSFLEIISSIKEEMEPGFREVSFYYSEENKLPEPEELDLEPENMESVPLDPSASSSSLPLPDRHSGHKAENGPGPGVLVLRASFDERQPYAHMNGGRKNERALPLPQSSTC
UniProt P06213: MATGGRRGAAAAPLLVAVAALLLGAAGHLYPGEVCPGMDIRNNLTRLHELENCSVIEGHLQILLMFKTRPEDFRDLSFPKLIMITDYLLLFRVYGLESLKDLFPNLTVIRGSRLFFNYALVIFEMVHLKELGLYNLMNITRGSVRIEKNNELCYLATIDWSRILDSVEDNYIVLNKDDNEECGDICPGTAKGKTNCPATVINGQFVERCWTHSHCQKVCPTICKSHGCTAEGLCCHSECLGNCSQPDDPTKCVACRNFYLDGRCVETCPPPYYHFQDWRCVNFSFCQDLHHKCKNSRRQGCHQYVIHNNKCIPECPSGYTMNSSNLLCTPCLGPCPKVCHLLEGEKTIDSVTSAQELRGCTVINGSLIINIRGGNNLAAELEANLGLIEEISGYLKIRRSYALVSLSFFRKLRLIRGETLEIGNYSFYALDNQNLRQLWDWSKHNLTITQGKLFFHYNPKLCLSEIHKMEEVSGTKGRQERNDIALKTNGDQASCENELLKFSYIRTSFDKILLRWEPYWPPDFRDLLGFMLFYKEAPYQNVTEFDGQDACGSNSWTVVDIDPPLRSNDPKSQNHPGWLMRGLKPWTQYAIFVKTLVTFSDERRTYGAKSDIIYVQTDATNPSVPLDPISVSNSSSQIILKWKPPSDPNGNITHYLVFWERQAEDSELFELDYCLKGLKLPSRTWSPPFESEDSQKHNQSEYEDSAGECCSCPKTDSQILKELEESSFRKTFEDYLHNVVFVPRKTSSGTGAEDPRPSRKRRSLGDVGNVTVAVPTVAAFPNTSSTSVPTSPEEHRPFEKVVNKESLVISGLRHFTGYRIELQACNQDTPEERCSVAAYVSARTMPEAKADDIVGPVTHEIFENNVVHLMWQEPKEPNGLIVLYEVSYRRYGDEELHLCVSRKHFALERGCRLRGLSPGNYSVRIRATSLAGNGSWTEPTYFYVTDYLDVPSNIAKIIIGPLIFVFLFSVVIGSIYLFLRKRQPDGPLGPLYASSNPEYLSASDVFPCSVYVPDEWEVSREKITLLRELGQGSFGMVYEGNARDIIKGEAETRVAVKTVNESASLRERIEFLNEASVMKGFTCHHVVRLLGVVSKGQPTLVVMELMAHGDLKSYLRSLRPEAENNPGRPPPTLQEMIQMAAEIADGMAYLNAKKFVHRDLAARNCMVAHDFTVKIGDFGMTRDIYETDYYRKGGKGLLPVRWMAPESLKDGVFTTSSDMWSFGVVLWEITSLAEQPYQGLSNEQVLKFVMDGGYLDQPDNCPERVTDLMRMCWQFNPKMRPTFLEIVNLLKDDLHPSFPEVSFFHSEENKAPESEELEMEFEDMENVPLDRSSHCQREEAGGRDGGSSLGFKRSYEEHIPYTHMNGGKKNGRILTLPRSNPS
UniProt P27361: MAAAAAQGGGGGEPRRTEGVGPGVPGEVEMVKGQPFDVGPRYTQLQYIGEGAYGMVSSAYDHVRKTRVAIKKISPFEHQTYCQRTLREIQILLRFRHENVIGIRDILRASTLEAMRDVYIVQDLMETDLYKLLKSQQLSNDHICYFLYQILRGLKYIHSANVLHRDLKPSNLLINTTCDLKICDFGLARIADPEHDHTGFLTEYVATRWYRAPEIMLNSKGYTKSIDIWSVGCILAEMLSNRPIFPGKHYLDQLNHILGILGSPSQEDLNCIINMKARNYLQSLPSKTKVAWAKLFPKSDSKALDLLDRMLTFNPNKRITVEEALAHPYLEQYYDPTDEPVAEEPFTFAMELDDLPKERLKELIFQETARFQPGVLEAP
UniProt P28482: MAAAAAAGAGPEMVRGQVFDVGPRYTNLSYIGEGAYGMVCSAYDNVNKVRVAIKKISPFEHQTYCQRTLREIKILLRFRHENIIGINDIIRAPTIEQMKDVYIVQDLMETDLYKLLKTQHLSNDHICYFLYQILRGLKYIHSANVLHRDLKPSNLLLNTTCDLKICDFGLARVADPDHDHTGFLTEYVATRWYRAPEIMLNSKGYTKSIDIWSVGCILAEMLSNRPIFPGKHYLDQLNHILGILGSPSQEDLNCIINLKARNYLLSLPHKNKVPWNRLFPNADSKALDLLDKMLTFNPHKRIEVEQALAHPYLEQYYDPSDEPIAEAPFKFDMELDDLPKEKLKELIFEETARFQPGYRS

Assays:
[1] = target: insulin-like growth factor-1 receptor (IGF1R) (human (endogenous in MCF7)) (UniProt P08069); test: co-IP; total lysates, cytoplasmic and nuclear extracts of MCF7 IGF1R-KD cells (IP anti-INSR beta-subunit) and INSR-KD cells (IP anti-IGF1R beta-subunit); 1% Triton X-100, 150 mM NaCl, 20 mM Tris pH 7.5, overnight at 4 C, protein A/G-agarose; blotted with anti-ERK1/2 or anti-AKT; IgG as control
[2] = target: insulin receptor (INSR) (human (endogenous in MCF7)) (UniProt P06213); test: as above

| binding [1] | binding [2] | Substance |
| --- | --- | --- |
| binds | binds | extracellular signal-regulated kinase 1 (ERK1) (from UniProt P27361 1-379) (enzyme) |
| binds | binds | extracellular signal-regulated kinase 2 (ERK2) (from UniProt P28482 1-360) (enzyme) |
